Measured values: paper PMC11672271
These are yes or no findings as the source states them, for the method shown. Binding seen in cells or lysates may run through a third protein. Some binding calls cover weakened binding; strength is not graded here. Each block holds one substance with its values, some of them ahead of it.

Amino acid sequences for entries named in this document (tags omitted). A change or cut given only in a name is not applied to a line headed by its entry. Chains listed by the source or under a name are the forms on record and can include a tag or linker. Residues count along the entry.
UniProt P42227: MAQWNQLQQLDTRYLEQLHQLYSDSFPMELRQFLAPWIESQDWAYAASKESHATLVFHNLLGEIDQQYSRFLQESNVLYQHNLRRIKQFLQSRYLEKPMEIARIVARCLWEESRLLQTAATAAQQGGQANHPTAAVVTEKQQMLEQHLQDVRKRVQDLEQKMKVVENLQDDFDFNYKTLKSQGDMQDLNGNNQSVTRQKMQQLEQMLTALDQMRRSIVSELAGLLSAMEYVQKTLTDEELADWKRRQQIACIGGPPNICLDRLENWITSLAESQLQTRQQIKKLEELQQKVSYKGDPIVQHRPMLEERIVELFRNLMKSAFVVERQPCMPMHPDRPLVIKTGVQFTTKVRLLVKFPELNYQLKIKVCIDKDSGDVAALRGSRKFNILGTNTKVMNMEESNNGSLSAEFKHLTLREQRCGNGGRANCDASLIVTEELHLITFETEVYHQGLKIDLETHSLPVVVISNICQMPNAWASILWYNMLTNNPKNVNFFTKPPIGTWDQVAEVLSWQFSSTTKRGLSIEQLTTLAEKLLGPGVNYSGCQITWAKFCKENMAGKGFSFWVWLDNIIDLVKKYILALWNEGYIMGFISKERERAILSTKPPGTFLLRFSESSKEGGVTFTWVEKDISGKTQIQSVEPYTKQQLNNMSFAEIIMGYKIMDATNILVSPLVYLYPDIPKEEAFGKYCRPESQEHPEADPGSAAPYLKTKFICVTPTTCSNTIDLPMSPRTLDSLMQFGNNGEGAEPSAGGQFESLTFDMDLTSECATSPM
N-terminal domain of STAT3 (1-355), as used in Figure 3D: residues 1-355 of P42227
STAT3-K177K180R (P42227, form named): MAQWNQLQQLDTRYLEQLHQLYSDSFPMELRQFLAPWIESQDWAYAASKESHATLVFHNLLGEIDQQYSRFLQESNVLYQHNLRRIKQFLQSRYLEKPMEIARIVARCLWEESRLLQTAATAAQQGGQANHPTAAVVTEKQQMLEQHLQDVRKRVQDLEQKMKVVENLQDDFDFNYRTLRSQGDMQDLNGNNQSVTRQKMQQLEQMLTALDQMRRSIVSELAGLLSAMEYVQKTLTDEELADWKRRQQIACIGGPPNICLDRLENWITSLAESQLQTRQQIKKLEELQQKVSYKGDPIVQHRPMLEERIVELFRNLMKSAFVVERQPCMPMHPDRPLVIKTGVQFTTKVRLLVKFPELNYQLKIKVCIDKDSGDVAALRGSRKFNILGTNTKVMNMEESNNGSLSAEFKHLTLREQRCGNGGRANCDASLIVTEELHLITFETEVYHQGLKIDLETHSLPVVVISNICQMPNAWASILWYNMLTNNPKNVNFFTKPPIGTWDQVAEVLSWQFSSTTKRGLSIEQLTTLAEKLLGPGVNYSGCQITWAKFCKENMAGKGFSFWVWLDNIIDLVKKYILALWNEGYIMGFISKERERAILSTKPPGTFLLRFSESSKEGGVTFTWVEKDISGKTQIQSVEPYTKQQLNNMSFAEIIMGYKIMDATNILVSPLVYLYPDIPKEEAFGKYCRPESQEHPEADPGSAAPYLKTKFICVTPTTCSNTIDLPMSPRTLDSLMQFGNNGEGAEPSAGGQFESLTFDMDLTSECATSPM
UniProt A6H5Z3: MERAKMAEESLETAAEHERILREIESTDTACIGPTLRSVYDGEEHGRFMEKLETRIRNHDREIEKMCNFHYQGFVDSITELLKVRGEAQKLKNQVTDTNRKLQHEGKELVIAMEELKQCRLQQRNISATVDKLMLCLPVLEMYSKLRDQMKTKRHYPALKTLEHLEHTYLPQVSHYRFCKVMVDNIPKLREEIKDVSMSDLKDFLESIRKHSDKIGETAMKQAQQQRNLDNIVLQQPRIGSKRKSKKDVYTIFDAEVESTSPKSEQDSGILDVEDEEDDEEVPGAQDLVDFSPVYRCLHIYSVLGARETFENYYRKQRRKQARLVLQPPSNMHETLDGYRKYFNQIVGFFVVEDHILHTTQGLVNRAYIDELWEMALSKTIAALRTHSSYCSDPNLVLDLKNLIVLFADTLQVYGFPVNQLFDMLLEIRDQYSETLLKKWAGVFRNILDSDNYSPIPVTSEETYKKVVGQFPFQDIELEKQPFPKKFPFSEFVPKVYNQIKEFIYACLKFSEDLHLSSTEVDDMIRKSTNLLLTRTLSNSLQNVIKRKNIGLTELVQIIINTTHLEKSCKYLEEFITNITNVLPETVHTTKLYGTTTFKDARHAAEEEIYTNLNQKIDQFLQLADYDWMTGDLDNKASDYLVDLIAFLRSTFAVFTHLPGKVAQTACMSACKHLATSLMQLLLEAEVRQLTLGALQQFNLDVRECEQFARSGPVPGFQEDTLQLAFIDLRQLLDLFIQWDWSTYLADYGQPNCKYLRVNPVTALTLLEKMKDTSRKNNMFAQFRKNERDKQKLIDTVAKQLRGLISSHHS

Key:
[1] = biological target: Myc-STAT3 full length (FL) (UniProt P42227); assay: co-IP; Myc-STAT3 and Flag-Sec15b co-transfected in HEK293T, without BFA; Western blot; precipitating antibody not told
[2] = biological target: Myc-STAT3 full length (FL) (UniProt P42227); assay: co-IP; Myc-STAT3 and Flag-Sec15b co-transfected in HEK293T, cells pretreated with brefeldin A (BFA) as indicated; Western blot
STAT3-K177K180R = STAT3-K177K180R (UniProt P42227); assay: co-IP; STAT3 mutants co-transfected with Flag-Sec15b in HEK293T; anti-Myc immunoprecipitates, Western blot
STAT3-C108G = STAT3-C108G (UniProt P42227); assay: as above
STAT3-Y293F = STAT3-Y293F (UniProt P42227); assay: as above
STAT3-R31K = STAT3-R31K (UniProt P42227); assay: as above
Flag-Sec15b = Flag-Sec15b (UniProt A6H5Z3); assay: co-IP; Myc-STAT3 full length or fragments co-transfected with Flag-Sec15b in HEK293T; anti-Flag immunoprecipitates, Western blot
[3] = biological target: N-terminal domain of STAT3 (1-355), as used in Figure 3D (UniProt P42227); assay: co-IP; N-terminal domains of STAT3 (1-355) and Sec15b (1-374) transfected into HEK293T; interaction checked by Western blot; tags and precipitating antibody not told
[4] = biological target: STAT3 (endogenous, CGR8 mESC) (mouse (endogenous in CGR8 mESC)) (UniProt P42227); assay: co-IP; endogenous STAT3 and Sec15b in CGR8 mESC after LIF withdrawal for indicated times; Western blot
[5] = biological target: STAT3 (endogenous, CGR8 mESC) (mouse (endogenous in CGR8 mESC)) (UniProt P42227); assay: co-IP; endogenous STAT3 and Sec15b in CGR8 mESC maintained in LIF; also after monensin (MNS) treatment (interaction rose with dose, peak at 2 h); Western blot

Substance: Myc-STAT3 ND-CCD domain (1-355) (from UniProt P42227 1-355) (domain or fragment)
binding (Flag-Sec15b): binds

Substance: Sec15b (endogenous, CGR8 mESC) (from UniProt A6H5Z3 1-810)
binding [4]: no binding (condition: LIF withdrawal from the medium) | binding [5]: binds

Continued, in another order:

binding [1]: binds | binding (STAT3-K177K180R): binds | binding (STAT3-C108G): binds | binding (STAT3-Y293F): binds | binding (STAT3-R31K): binds
Substance: Flag-Sec15b (from UniProt A6H5Z3 1-810)
binding [2]: no binding (condition: pretreatment of the cells with BFA)

binding (Flag-Sec15b): no binding
Substance: Myc-STAT3 ND domain (1-130) (from UniProt P42227 1-130) (domain or fragment)

binding [3]: binds
Substance: N-terminal domain (1-374) of Sec15b (from UniProt A6H5Z3 1-374) (domain or fragment)
